This is one part of the list.
What was measured:
Test in all cases: glycan array binding signal (z-score within array); higher = stronger binding
Settings in all cases: glycan notation: IUPAC condensed, linker removed
[1] = biological target: Neu5Ac(a2-6)Gal(b1-4)GlcNAc(b1-2)Man(a1-3)[Neu5Ac(a2-3)Gal(b1-4)GlcNAc(b1-2)Man(a1-6)]Man(b1-4)GlcNAc(b1-4)GlcNAc
Summary of the method: (§1)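 The binding signal is a Z-score computed within each array and averaged over linkers. Arrays of the same protein sequence at different concentrations or buffers were also averaged together. Data originate from 3228 arrays in the Consortium for Functional Glycomics database, kept only where the protein sequence was available.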

[2] = biological target: Neu5Ac(a2-6)Gal(b1-4)GlcNAc(b1-2)Man(a1-3)[Neu5Ac(a2-6)Gal(b1-4)GlcNAc(b1-2)Man(a1-6)]Man(b1-4)GlcNAc(b1-4)GlcNAc
Summary of the method: as §1

[3] = biological target: Neu5Ac(a2-6)Gal(b1-4)GlcNAc(b1-2)Man(a1-3)[Neu5Ac(a2-6)Gal(b1-4)GlcNAc(b1-2)Man(a1-6)]Man(b1-4)GlcNAc(b1-4)[Fuc(a1-6)]GlcNAc
Summary of the method: as §1

[4] = biological target: Neu5Ac(a2-6)Gal(b1-4)GlcNAc(b1-2)Man(a1-6)Man(b1-4)GlcNAc(b1-4)GlcNAc
Summary of the method: as §1

[5] = biological target: Neu5Ac(a2-6)Gal(b1-4)GlcNAc(b1-2)Man(a1-6)[Gal(b1-4)GlcNAc(b1-2)Man(a1-3)]Man(b1-4)GlcNAc(b1-4)GlcNAc
Summary of the method: as §1

[6] = biological target: Neu5Ac(a2-6)Gal(b1-4)GlcNAc(b1-2)Man(a1-6)[GlcNAc(b1-2)Man(a1-3)]Man(b1-4)GlcNAc(b1-4)GlcNAc
Summary of the method: as §1

[7] = biological target: Neu5Ac(a2-6)Gal(b1-4)GlcNAc(b1-2)Man(a1-6)[Man(a1-3)]Man(b1-4)GlcNAc(b1-4)GlcNAc
Summary of the method: as §1

[8] = biological target: Neu5Ac(a2-6)Gal(b1-4)GlcNAc(b1-2)[Neu5Ac(a2-6)Gal(b1-4)GlcNAc(b1-4)]Man(a1-3)[GlcNAc(b1-4)][Neu5Ac(a2-6)Gal(b1-4)GlcNAc(b1-2)[Neu5Ac(a2-6)Gal(b1-4)GlcNAc(b1-6)]Man(a1-6)]Man(b1-4)GlcNAc(b1-4)GlcNAc
Summary of the method: as §1

[9] = biological target: Neu5Ac(a2-6)Gal(b1-4)GlcNAc(b1-2)[Neu5Ac(a2-6)Gal(b1-4)GlcNAc(b1-4)]Man(a1-3)[GlcNAc(b1-4)][Neu5Ac(a2-6)Gal(b1-4)GlcNAc(b1-4)Man(a1-6)]Man(b1-4)GlcNAc(b1-4)GlcNAc
Summary of the method: as §1

[10] = biological target: Neu5Ac(a2-6)Gal(b1-4)GlcNAc(b1-2)[Neu5Ac(a2-6)Gal(b1-4)GlcNAc(b1-6)]Man(a1-6)[Neu5Ac(a2-6)Gal(b1-4)GlcNAc(b1-2)Man(a1-3)][GlcNAc(b1-4)]Man(b1-4)GlcNAc(b1-4)GlcNAc
Summary of the method: as §1

[11] = biological target: Neu5Ac(a2-6)Gal(b1-4)GlcNAc(b1-3)Gal(b1-3)GlcNAc
Summary of the method: as §1

[12] = biological target: Neu5Ac(a2-6)Gal(b1-4)GlcNAc(b1-3)Gal(b1-4)GlcNAc
Summary of the method: as §1

[13] = biological target: Neu5Ac(a2-6)Gal(b1-4)GlcNAc(b1-3)Gal(b1-4)GlcNAc(b1-2)Man(a1-3)[Neu5Ac(a2-6)Gal(b1-4)GlcNAc(b1-3)Gal(b1-4)GlcNAc(b1-2)Man(a1-6)]GalNAc
Summary of the method: as §1

[14] = biological target: Neu5Ac(a2-6)Gal(b1-4)GlcNAc(b1-3)Gal(b1-4)GlcNAc(b1-3)Gal(b1-4)GlcNAc
Summary of the method: as §1

[15] = biological target: Neu5Ac(a2-6)Gal(b1-4)GlcNAc(b1-3)Gal(b1-4)GlcNAc(b1-3)Gal(b1-4)GlcNAc(b1-2)Man(a1-3)[Neu5Ac(a2-6)Gal(b1-4)GlcNAc(b1-3)Gal(b1-4)GlcNAc(b1-3)Gal(b1-4)GlcNAc(b1-2)Man(a1-6)]GalNAc
Summary of the method: as §1

[16] = biological target: Neu5Ac(a2-6)Gal(b1-4)GlcNAc(b1-3)Gal(b1-4)GlcNAc(b1-3)GalNAc
Summary of the method: as §1

[17] = biological target: Neu5Ac(a2-6)Gal(b1-4)GlcNAc(b1-3)Gal(b1-4)GlcNAc(b1-3)[Neu5Ac(a2-6)Gal(b1-4)GlcNAc(b1-3)Gal(b1-4)GlcNAc(b1-6)]GalNAc
Summary of the method: as §1

[18] = biological target: Neu5Ac(a2-6)Gal(b1-4)GlcNAc(b1-3)Gal(b1-4)GlcNAc(b1-6)[Gal(b1-3)]GalNAc
Summary of the method: as §1

[19] = biological target: Neu5Ac(a2-6)Gal(b1-4)GlcNAc(b1-3)Gal(b1-4)[Fuc(a1-3)]GlcNAc(b1-3)Gal(b1-4)[Fuc(a1-3)]GlcNAc
Summary of the method: as §1

[20] = biological target: Neu5Ac(a2-6)Gal(b1-4)GlcNAc(b1-3)GalNAc
Summary of the method: as §1

[21] = biological target: Neu5Ac(a2-6)Gal(b1-4)GlcNAc(b1-3)[Neu5Ac(a2-6)Gal(b1-4)GlcNAc(b1-6)]GalNAc
Summary of the method: as §1

[22] = biological target: Neu5Ac(a2-6)Gal(b1-4)GlcNAc(b1-6)GalNAc
Summary of the method: as §1

[23] = biological target: Neu5Ac(a2-6)Gal(b1-4)GlcNAc(b1-6)[Gal(b1-3)GlcNAc(b1-3)]Gal(b1-4)Glc
Summary of the method: as §1

[24] = biological target: Neu5Ac(a2-6)Gal(b1-4)GlcNAc(b1-6)[Gal(b1-3)]GalNAc
Summary of the method: as §1

[25] = biological target: Neu5Ac(a2-6)Gal(b1-4)GlcNAc6S
Summary of the method: as §1

[26] = biological target: Neu5Ac(a2-6)GalNAc
Summary of the method: as §1

[27] = biological target: Neu5Ac(a2-6)GalNAc(b1-4)GlcNAc
Summary of the method: as §1

[28] = biological target: Neu5Ac(a2-6)GalNAc(b1-4)GlcNAc6S
Summary of the method: as §1

[29] = biological target: Neu5Ac(a2-6)GlcNAc(b1-4)GlcNAc
Summary of the method: as §1

[30] = biological target: Neu5Ac(a2-6)GlcNAc(b1-4)GlcNAc(b1-4)GlcNAc
Summary of the method: as §1

B1: Blon2355mut (Bifidobacterium longum) (protein)
chain: MVQEPTLEWHVIPEPTNVEPLVGTCSLPLSGTVVEQRGADDAEAVFARQLVDDIKRVCGGRWQVASGEVQREVTLRTSPSLDDWSYVLEVSPDGVVITGSGFEGVRDGVQTLRQIIRQIGLTIPCMVIRDRPAFSTRGYYLDVTRGRVPSMAWLKSWVDRLCFYKYNQFQLYIEHTFQFNGLSEVWRGADPLTSSDILELDSYCAARGIELVPSVSTFGHHYTALRTRQLRDLGEFPEDADRPFSLIERMTHHTLNITDERSYEFSTSLIDELMPLFRSRKFNICANETFDLGKGRSKQESAKRGVGAMYADFVERLCRHVDDRGHDVMVWADVALEHPEIIDTLPKNITWLNWQYEPNVDDGTTAALADAGATQMVCPAVWCWNALIPRIDDAWNNITRMARHGRAHDVSGMLVTDWGDFGHVNDPRMSVPGMIFGAQQSWNPDAELSEVDMLSRISTIEYGDHTGSVVGALRGASAKGGFSWSDLVTYLELDDGRGGCNTEIVRVMGCLEAYRNDLPQSGQARLADARVSMLRTLRDSILAGRELNGKLDDAAKDITQLLRVAGDPSSAAVWSLAIDGQRLLNRVGLALLAAHGVVRQDEAGIDAAKLADELECWTEQYSRLWHEVSRQSELARIQHVVWRAADVLRSI
B1 was tested, and the “glycan array binding signal (z-score)” value [1] was 0.424, the “glycan array binding signal (z-score)” value [2] was -0.297 and the “glycan array binding signal (z-score)” value [3] was 0.442. The “glycan array binding signal (z-score)” value [4] was -0.305, the “glycan array binding signal (z-score)” value [5] was -0.87 and the “glycan array binding signal (z-score)” value [6] was -0.811. The “glycan array binding signal (z-score)” value [7] was 0.143, the “glycan array binding signal (z-score)” value [8] was 0.368 and the “glycan array binding signal (z-score)” value [9] was -0.287. For the same binder, the “glycan array binding signal (z-score)” value [10] was -0.656, the “glycan array binding signal (z-score)” value [11] was -0.183 and the “glycan array binding signal (z-score)” value [12] was 0.018. For the same binder, the “glycan array binding signal (z-score)” value [13] was 2.02, the “glycan array binding signal (z-score)” value [14] was 0.125 and the “glycan array binding signal (z-score)” value [15] was 0.691. The “glycan array binding signal (z-score)” value [16] was -0.221, the “glycan array binding signal (z-score)” value [17] was -0.353 and the “glycan array binding signal (z-score)” value [18] was 0.2. The “glycan array binding signal (z-score)” value [19] was -0.399, the “glycan array binding signal (z-score)” value [20] was -0.406 and the “glycan array binding signal (z-score)” value [21] was 0.051. The “glycan array binding signal (z-score)” value [22] was 0.159, the “glycan array binding signal (z-score)” value [23] was -1.08 and the “glycan array binding signal (z-score)” value [24] was 0.449. For the same binder, the “glycan array binding signal (z-score)” value [25] was -1.3, the “glycan array binding signal (z-score)” value [26] was 0.95 and the “glycan array binding signal (z-score)” value [27] was -1. The “glycan array binding signal (z-score)” value [28] was -0.126, the “glycan array binding signal (z-score)” value [29] was -0.8 and the “glycan array binding signal (z-score)” value [30] was -0.932.

Source: the supplement of paper PMC8728848
